Residue numbers refer to the chain shown, from its start. Some of the results follow.
B1: il10ra_site1_normal_mot_e1dd4851c59bc1cdde016f988f6856bd_0001_1_000000200_0001_16_31_H_._HHH_eva_0684_0001_0000100003_0000001_0 (protein)
chain: SSSSSSTEEEIREIVRELAEEFGLSEDEIRAVELAARRNGASEREIESMIRFQALARSSSSSSSS
B2: il10ra_site1_sap_18_mot_HHH_b1_05672_af2_000000246_0001_1_19_H_._9bea83002f54911cbf225d03fb4c55e1_0001_0001_0000200017_0000002_0_0001 (protein)
chain: SSSSSDIEEEVEELIEELEELLRNGDPERASRVALRALRLIYRLGDWELLRKLWEVFTSHSSSSS
B3: il10ra_site1_normal_mot_HHH_b1_07219_af2_000000236_0001_1_17_H_._HHH_b1_03359_af2_0001_0000400010_0000001_0 (protein)
chain: SSSSDEEEEELKELEQEAKKLEEEGNPEEALQVLWRAAKLAAELGDKELLERLAELLRHVFSSSS
B4: il10ra_site1_sap_18_mot_HHH_b1_04771_000000013_0001_40_56_H_._HHH_b1_08590_0001_0000200016_0000001_0_0001 (protein)
chain: B1 chain with R12E, E13R, S25D, E28F, S48A, L55R
B5: il10ra_site1_normal_mot_HHH_b2_03183_af2_000000055_0001_40_56_H_._HHH_b1_05414_af2_0001_0000400033_0000001_0 (protein)
chain: SSSDYEERIARLLAEAALALVRGDPEEAEELVEEALELAEQNNNEELKELIRALERLIKQTSSSS
B6: il10ra_site1_normal_mot_HHH_b2_01032_000000296_0001_1_18_H_._HHH_b2_04729_0001_0000100002_0000001_0 (protein)
chain: SSSSDEEQERLLELLREIFRLLLEGDEEEARRLIEEAEELAEELGDEQALRVLRDMLKALNSSSS
B7: il10ra_site1_sap_20_mot_HHH_b1_03031_af2_000000117_0001_17_33_H_._HHH_b2_03680_0001_0000500019_0000001_0_0001 (protein)
chain: SSSSSSELEELLEEIKELLENGDPEEALRLIWEAVRLAAENNDHETVRELAELLKEVYQLSSSSS
B8: il10ra_site1_normal_mot_HHH_b2_00475_000000107_0001_44_57_H_._HHH_b1_00662_0001_0000900056_0000001_0 (protein)
chain: SSSSSIEERIVQLLLRALRLHAEGNPEEAERLIEEAEELAEELGDPELQRYIRILLHFVKSSSSS
B9: il10ra_site1_normal_mot_HHH_b2_05813_000000266_0001_1_19_H_._HHH_b1_01710_0001_0000100008_0000001_1_af2pred_dldesign_0_af2pred (protein)
chain: SSSSSLEEEAFKLAVEVYRLLQEGKPEEAREVLEKLRALAEEHNDARLARLYEALLRYLESSSSS
B10: il10ra_site1_sap_17_mot_HHH_b1_02766_af2_000000078_0001_42_56_H_._HHH_b1_00700_0001_0000100009_0000001_0_0001 (protein)
chain: SSSSSSDEVYELVKRIIELMSDGNPEEAEELLEEAKRLAEEAGNRILLWILEWLERQLSSSSSSS
B11: il10ra_site1_normal_mot_HHH_b1_06789_af2_000000041_0001_1_20_H_._HHH_b1_08340_0001_0000500027_0000001_0 (protein)
chain: SSSSTNAEFLIRQALKALERAVKLGDEEKVEFVYRIIKRLLRQLGDPELERLLEELYEELNSSSS
B12: il10ra_site1_sap_23_mot_HHH_b1_04327_000000247_0001_1_20_H_._HHH_b1_01543_0001_0000200014_0000001_0_0001_af2pred_0001 (protein)
chain: SSSSSDAERAAEILFRAAELALELGDEEFVKRTLKEMEFLARATNNPEIRELVEELQERLSSSSS
B13: il10ra_site1_normal_mot_HHH_b2_00622_af2_000000153_0001_40_57_H_._HHH_b2_01543_0001_0000500021_0000003_0 (protein)
chain: SSSSDEEYVRRALRFARALLESGNPEAARSLARQAEEVARRLGNPELEELVREVLEEIEQKSSSS
B14: il10ra_site1_normal_mot_HHH_b1_08176_000000188_0001_1_20_H_._HHH_b1_03331_af2_0001_0000100006_0000002_0 (protein)
chain: SSSSDEENQRALELSIEAFRLALRGNPEEAEELLEEAAELAERGNNEQLLRIIEELLRAQSSSSS
B15: il10ra_site1_sap_21_mot_HHH_b1_06341_af2_000000167_0001_17_35_H_._HHH_b1_05575_0001_0000100002_0000001_0_0001 (protein)
chain: SSSSDEELEELKELLEELIERNDRERFAKVLMRALRHAYQLSDPEVLRKLWELLEEFAKRLSSSS
B16: il10ra_site1_normal_mot_HHH_b1_02397_af2_000000085_0001_39_57_H_._HHH_b2_05327_0001_0000600045_0000001_0 (protein)
chain: SSSSSEEEERLEKLLEEIEEAVRRGDPELFARLVQELLRLAFRLSDQEVLQELWRLFREAASSSS
B17: il10ra_site1_normal_mot_HHH_b1_08446_000000041_0001_1_19_H_._HHH_b2_05901_0001_0000100009_0000001_0_af2pred_0001 (protein)
chain: SSSSSSEEESEKELEELKEELKHVSPEERFRLVRELIERLVREGDDELAREISRFVLRLSSSSSS
B18: il10ra_site1_normal_mot_HHH_b2_05323_000000159_0001_1_18_H_._HHH_b1_06664_0001_0000100010_0000002_0 (protein)
chain: SSSSDLLEEALELSLEAFRLALRGNPEEARKVAEEALELAEEEGDPQLFRQIEELLKALRSSSSS
B19: il10ra_site1_sap_19_mot_HHH_b2_07873_af2_000000172_0001_1_19_H_._2b3eed1bc0ad79715e02f0e0fad3abd3_0001_0001_0000400009_0000002_0_0001 (protein)
chain: SSSSSMEEIYELIREALELLARGDAEEARRVVEEAEEIARENNDRVALIQLEFLLRAIEIRSSSS
B20: il10ra_site1_sap_28_mot_HEEHE_1605_000000211_0001_40_56_H_._2012b86ae8029c2c8ab6d311e818aa61_0001_af2_0001_0000300013_0000002_0_0001 (protein)
chain: SSSSSDEEEERVEELLELLEKAKSREELARVAKEVLHLAFRLNDPELLEEVWEIFAKAASSSSSS
B21: il10ra_site1_normal_mot_HHH_b1_01821_000000158_0001_23_39_H_._HHH_b2_04081_0001_0000100006_0000001_0 (protein)
chain: SSSSDVEERIEELIERAEELAEQGNPEEASRLLQEAVQLAYRINDPELLRLIWEVFRELFSSSSS
B22: il10ra_site1_normal_mot_HHH_b2_01310_000000089_0001_41_55_H_._HHH_b1_00651_0001_0000100004_0000002_0_af2pred_0001 (protein)
chain: SSSSDEEEEERIQEYYERIRELAEEGNPEEALRLLRKLVRLAIKLGNQEALKLAIELAELLSSSS
B23: il10ra_site1_normal_mot_HHH_b2_07521_000000141_0001_20_37_H_._HHH_b1_05469_0001_0000200025_0000001_1_af2pred_0001 (protein)
chain: SSSSSDEEKAEAALRIAERLFELGDPEAARIILEALLKLLEEAGNEELLEKVEELLEEIESSSSS
B24: il10ra_site1_sap_26_mot_0eddeacbb14b769e73e254714f31e2f9_0001_af2_000000203_0001_37_51_H_._HHH_b1_06326_0001_0000100007_0000001_0_0001 (protein)
chain: SSSSDETQRVFELIREAAELLNEGNPEEAEKVLEEAREIAEELGNDIFRWQIEWLEKLIEQSSSS

target: il10ra, Q13651; experiment: yeast display titration

Apparent Kd, inactive:
B1 no binding seen
B2 no binding seen
B3 no binding seen
B4 no binding seen
B5 no binding seen
B6 > 843 nM
B7 no binding seen
B8 no binding seen
B9 no binding seen
B10 no binding seen
B11 no binding seen
B12 no binding seen
B13 no binding seen
B14 no binding seen
B15 no binding seen
B16 > 1030 nM
B17 no binding seen
B18 no binding seen
B19 no binding seen
B20 no binding seen
B21 no binding seen
B22 no binding seen
B23 no binding seen
B24 no binding seen

No new results follow: an excerpt of the list.
Apparent Kd, inactive:
B3 no binding seen
B4 no binding seen
